Assay results as given in paper PMC8144572.
These are yes or no findings as the source states them, for the method shown. Some entries that bind do so weakly or less than the wild type.

By UniProt entry, the sequences of proteins in these tests, tags left out.
UniProt P42259: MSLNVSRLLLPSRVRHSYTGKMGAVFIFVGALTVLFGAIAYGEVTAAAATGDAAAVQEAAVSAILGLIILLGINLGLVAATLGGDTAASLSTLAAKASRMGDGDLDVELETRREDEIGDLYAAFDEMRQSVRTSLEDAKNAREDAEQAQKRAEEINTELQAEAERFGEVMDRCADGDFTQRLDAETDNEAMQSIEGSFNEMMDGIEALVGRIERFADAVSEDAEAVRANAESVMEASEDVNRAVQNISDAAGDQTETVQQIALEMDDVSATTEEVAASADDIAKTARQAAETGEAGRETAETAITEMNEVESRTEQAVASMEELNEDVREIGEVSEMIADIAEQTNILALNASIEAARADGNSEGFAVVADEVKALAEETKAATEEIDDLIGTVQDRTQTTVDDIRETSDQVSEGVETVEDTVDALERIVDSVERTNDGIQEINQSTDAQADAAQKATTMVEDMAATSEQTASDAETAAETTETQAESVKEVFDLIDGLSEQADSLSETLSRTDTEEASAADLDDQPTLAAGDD

Target: full-length transducer NpHtrII from Natronomonas pharaonis (Natronomonas pharaonis) (UniProt P42259)
Assay: co-purification (Ni-NTA, then SEC); NpSRII co-expressed with NpHtrII or NpHtrII137 in E. coli; pellet solubilised in 1% DDM; purified via Ni-NTA (6xHis on the transducer) and Superose 6 size-exclusion chromatography; SDS-PAGE of the purified complex

B1: sensory rhodopsin II from Natronomonas pharaonis (NpSRII) (protein, UniProt P42196 1-239)
chain: MVGLTTLFWLGAIGMLVGTLAFAWAGRDAGSGERRYYVTLVGISGIAAVAYVVMALGVGWVPVAERTVFAPRYIDWILTTPLIVYFLGLLAGLDSREFGIVITLNTVVMLAGFAGAMVPGIERYALFGMGAVAFLGLVYYLVGPMTESASQRSSGIKSLYVRLRNLTVILWAIYPFIWLLGPPGVALLTPTVDVALIVYLDLVTKVGFGFIALDAAATLRAEHGESLAGVDTDAPAVAD
- binding: binds
